Experimental findings from PMC10077476 are described below.

By UniProt entry, the sequences of proteins in these tests, tags left out. Where a name states a change or a piece, a line headed by the entry shows the natural chain unless it says otherwise.
UniProt Q8K4J6: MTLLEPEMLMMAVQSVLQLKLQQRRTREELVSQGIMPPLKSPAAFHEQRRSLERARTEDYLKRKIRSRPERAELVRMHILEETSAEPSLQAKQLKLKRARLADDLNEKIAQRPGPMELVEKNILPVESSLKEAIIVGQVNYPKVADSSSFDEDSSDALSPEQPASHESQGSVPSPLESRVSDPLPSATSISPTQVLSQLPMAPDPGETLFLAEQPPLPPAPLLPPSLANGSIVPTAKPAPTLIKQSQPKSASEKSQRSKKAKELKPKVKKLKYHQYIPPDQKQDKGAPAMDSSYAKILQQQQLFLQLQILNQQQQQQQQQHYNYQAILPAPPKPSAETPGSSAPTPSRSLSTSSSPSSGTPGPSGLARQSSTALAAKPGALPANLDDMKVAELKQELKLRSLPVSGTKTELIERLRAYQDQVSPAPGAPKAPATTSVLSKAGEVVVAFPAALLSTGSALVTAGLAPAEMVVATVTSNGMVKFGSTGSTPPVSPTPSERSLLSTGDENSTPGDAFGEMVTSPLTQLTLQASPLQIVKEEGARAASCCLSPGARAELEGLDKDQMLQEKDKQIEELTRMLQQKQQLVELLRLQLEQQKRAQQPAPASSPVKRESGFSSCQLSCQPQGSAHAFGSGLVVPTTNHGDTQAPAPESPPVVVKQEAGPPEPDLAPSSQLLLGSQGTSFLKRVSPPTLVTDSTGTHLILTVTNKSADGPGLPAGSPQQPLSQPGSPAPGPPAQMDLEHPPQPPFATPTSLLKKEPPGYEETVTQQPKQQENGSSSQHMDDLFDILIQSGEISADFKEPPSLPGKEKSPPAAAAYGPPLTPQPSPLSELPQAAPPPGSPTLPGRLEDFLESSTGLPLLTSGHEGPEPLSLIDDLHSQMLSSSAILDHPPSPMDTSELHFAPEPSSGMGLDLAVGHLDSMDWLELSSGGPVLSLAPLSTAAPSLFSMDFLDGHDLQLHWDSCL

Results are given in words; binding and its absence hold for the method and conditions named. For part of these data: Binding calls can cover weak binding; strength is not graded here. Tags and fused reporters may be left off the sequences shown. For part of these data: Binding seen in cells or lysates may run through a third protein.

Test [1] addresses flag-MRTF-A aa 480–930 (transaction domain) (UniProt Q8K4J6). Kind of test: co-IP; COS-7 cells transfected with epitope-tagged Prdm6 and MRTF-A constructs; RIPA lysates, anti-myc or anti-flag IP overnight at 4°C, washed in 20 mM Tris HCl pH 7.3, 150 mM NaCl, 10% glycerol, 0.5% Triton X-100; Western blot; in separate experiments cytochalasin D was included. On the technique in general: Immunoblotting shows a protein as a band on a membrane.

In test [2] the target is flag-MRTF-A aa 109–475 (central region) (UniProt Q8K4J6). Described as above.
Test [3] has the same target. In words: far-Western, overlay or dot blot; flag-tagged MRTF-A variants immunoprecipitated from COS-7 cells, resolved by SDS-PAGE, transferred to nitrocellulose and renatured; incubated with recombinant GST-PRDM6 in blocking buffer (20% goat serum, 3% BSA, in PBS); probed with anti-GST Ab; both purified.

B1: myc-Prdm6 (COS-7) (protein, UniProt Q3UZD5 1-596)
chain: MLKPGDPGGSAFLKVDPAYLQHWQQLFPHGGGGGGPLKASGAALALGAPQPLQPPPPPPPPPPERAEPPPDGLRPRPASLSSTPAPSSTSASSASSCAAAAAAAALAGLSALPVAQMPVFAPLAAAAVAAEPLPPKDLCLGASAGPGPAKCGGGGGSVGDGRGVPRFRCSAEELDYYLYGQQRMEIIPLNQHTSDPNNRCDMCADNRNGECPMHGPLHSLRRLVGTSSAAAAAPPPELPEWLRDLPREVCLCTSTVPGLAYGICAAQRIQQGTWIGPFQGVLLSPEKVQTGVVRNTQHLWEIYDQDGTLQHFIDGGEPSKSSWMRYIRCARHCGEQNLTVVQYRSNIFYRACIDIPRGTELLVWYNDSYTSFFGIPLQCIAQDENLNVPSTVMEAMCRQDALQPFNKSSKLSPSGQQRSVVFPQTPCSRNFSLLDKSGPMEAGFNQINVKNQRVLASPTSTSQLHSEFSDWHLWKCGQCFKTFTQRILLQMHVCTQNPDRPYQCGHCSQSFSQPSELRNHVVTHSSDRPFKCGYCGRAFAGATTLNNHIRTHTGEKPFKCERCERSFTQATQLSRHQRMPNECKPITESPESIEVD
Turning to B1, the binding entry in test [1] is “no binding”; in test [2], “binds”.

B2: recombinant GST-PRDM6 protein (protein, UniProt Q3UZD5 1-596)
chain: MLKPGDPGGSAFLKVDPAYLQHWQQLFPHGGGGGGPLKASGAALALGAPQPLQPPPPPPPPPPERAEPPPDGLRPRPASLSSTPAPSSTSASSASSCAAAAAAAALAGLSALPVAQMPVFAPLAAAAVAAEPLPPKDLCLGASAGPGPAKCGGGGGSVGDGRGVPRFRCSAEELDYYLYGQQRMEIIPLNQHTSDPNNRCDMCADNRNGECPMHGPLHSLRRLVGTSSAAAAAPPPELPEWLRDLPREVCLCTSTVPGLAYGICAAQRIQQGTWIGPFQGVLLSPEKVQTGVVRNTQHLWEIYDQDGTLQHFIDGGEPSKSSWMRYIRCARHCGEQNLTVVQYRSNIFYRACIDIPRGTELLVWYNDSYTSFFGIPLQCIAQDENLNVPSTVMEAMCRQDALQPFNKSSKLSPSGQQRSVVFPQTPCSRNFSLLDKSGPMEAGFNQINVKNQRVLASPTSTSQLHSEFSDWHLWKCGQCFKTFTQRILLQMHVCTQNPDRPYQCGHCSQSFSQPSELRNHVVTHSSDRPFKCGYCGRAFAGATTLNNHIRTHTGEKPFKCERCERSFTQATQLSRHQRMPNECKPITESPESIEVD
On to B2, for which the binding result in test [3] is listed as “binds”.
